Data published in article PMC10567576.
Results are given in words; binding and its absence hold for the method and conditions named. In cells and extracts the contact can be indirect. Some binding calls cover weakened binding; strength is not graded here.

Sequences of proteins named here, by UniProt entry; tags and fusion partners are left off. Residues count along the entry.
UniProt P18084, residues 715-769: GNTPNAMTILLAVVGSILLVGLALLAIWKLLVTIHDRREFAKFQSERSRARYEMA

Target: GFP–ITGβ5(715–769) (human) (UniProt P18084)
Experiment: co-IP; HEK293T cells co-transfected with the GFP- and RFP-tagged constructs; after 48 h cross-linked with 0.5 mM DSP in PBS for 30 min at RT, quenched in 50 mM Tris-HCl, lysed in 1x RIPA buffer for 1 h at 4 °C; GFP-Trap magnetic agarose overnight at 4 °C; four washes with RIPA; western blot

| Binder | binding |
| --- | --- |
| FCHo2_µHD–RFP (domain or fragment, UniProt Q3UQN2 520-809) ANTPTVGVSRGPSPVSLGNQDTLPVAIALTESVNAYFKGADPTKCIVKITGDVTISFPSGIIKVFTSNPSPAVLCFRVKNISRLEQILPNSQLVFSDPSQCDSNTKDFWMNMQAVTIYLKKLSEQNPAASYYNVDVLKYQVSSNGIQSTPLNLATYWKCSASTTDLRVDYKYNPEAMVAPSVLSNIQVVVPVDGGVTNMQSLPPAIWNAEQMKAFWKLSGISEKSDSGGSGSLRAKFDLSEGPSKPTTLAVQFLSEGNTLSGVDIELVGTGYRLSLVKKRFATGRYLADC | binds |
| FCHo2_ΔµHD–RFP (domain or fragment, UniProt Q3UQN2 1-525) MVMAHFVENFWGEKNNGFDVLYHNMKHGQISTKELADFVRERATIEEAYSRSMTKLAKSASNYSQLGTFAPMWDVFKTSTEKLANCHLDLVRKLQELIKEVQKYGEEQVKSHKKTKEEVAGTLEAVQAIQNITQALQKSKENYTAKCVEQERLKKEGATQREIEKAAVKSKKATDTYKLYVEKYALTKADFEQKMTETAQKFQDIEETHLIHIKEIIGSLSNAVKEIHLQIGQVHEEFINNMANTTIESLIQKFAESKGTGKERPGLIEFEECDPASAVEGIKPRKRKTFALPGIIKKEKDAESVECPDADSLNIPDVDEEGFSIKPEANQNDTKENHFYSSSDSDSEDEEPKRYRIEIKPAHPNNLHHTMASLDELKVSIGNITLSPAVSRHSPVQMNRNSSNEELTKSKPSSLPTEKGTNDLLAWDPLFGSSLESSSAPLTSSSSARPTTPLSLGTLVPPPRPASRPKLASGKLSGINEIPRPFSPPVTSNTSPPPTAPLARAESSSSISSSASLSAANTPTV | no binding |
